Measured values as given in patent US20020177177A1 (PROLIFIX, published 2002).
These are yes or no findings as the source states them, for the method shown. For some of these results: In cells and extracts the contact can be indirect. Some binding calls cover weakened binding; strength is not graded here.

By UniProt entry, the sequences of proteins in these tests, tags left out. Where a name states a change or a piece, a line headed by the entry shows the natural chain unless it says otherwise. Chains listed by the source or under a name are the forms on record and can include a tag or linker. Residues count along the entry.
UniProt P03372: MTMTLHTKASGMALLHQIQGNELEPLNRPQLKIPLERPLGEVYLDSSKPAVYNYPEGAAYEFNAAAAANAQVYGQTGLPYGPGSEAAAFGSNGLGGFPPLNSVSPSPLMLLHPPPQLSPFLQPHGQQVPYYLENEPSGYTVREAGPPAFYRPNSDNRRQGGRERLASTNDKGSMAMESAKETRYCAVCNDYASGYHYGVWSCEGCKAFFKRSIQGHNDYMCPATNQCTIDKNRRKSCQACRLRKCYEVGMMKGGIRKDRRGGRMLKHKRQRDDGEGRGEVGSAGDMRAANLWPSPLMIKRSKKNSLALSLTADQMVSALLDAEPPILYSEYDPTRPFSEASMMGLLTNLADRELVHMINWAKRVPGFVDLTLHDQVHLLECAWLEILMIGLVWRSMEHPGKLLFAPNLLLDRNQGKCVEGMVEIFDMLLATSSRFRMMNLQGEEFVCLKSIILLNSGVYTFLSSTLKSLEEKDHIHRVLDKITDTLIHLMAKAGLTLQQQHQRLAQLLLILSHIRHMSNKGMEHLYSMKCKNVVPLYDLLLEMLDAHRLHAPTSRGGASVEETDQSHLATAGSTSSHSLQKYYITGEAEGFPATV
UniProt Q15788: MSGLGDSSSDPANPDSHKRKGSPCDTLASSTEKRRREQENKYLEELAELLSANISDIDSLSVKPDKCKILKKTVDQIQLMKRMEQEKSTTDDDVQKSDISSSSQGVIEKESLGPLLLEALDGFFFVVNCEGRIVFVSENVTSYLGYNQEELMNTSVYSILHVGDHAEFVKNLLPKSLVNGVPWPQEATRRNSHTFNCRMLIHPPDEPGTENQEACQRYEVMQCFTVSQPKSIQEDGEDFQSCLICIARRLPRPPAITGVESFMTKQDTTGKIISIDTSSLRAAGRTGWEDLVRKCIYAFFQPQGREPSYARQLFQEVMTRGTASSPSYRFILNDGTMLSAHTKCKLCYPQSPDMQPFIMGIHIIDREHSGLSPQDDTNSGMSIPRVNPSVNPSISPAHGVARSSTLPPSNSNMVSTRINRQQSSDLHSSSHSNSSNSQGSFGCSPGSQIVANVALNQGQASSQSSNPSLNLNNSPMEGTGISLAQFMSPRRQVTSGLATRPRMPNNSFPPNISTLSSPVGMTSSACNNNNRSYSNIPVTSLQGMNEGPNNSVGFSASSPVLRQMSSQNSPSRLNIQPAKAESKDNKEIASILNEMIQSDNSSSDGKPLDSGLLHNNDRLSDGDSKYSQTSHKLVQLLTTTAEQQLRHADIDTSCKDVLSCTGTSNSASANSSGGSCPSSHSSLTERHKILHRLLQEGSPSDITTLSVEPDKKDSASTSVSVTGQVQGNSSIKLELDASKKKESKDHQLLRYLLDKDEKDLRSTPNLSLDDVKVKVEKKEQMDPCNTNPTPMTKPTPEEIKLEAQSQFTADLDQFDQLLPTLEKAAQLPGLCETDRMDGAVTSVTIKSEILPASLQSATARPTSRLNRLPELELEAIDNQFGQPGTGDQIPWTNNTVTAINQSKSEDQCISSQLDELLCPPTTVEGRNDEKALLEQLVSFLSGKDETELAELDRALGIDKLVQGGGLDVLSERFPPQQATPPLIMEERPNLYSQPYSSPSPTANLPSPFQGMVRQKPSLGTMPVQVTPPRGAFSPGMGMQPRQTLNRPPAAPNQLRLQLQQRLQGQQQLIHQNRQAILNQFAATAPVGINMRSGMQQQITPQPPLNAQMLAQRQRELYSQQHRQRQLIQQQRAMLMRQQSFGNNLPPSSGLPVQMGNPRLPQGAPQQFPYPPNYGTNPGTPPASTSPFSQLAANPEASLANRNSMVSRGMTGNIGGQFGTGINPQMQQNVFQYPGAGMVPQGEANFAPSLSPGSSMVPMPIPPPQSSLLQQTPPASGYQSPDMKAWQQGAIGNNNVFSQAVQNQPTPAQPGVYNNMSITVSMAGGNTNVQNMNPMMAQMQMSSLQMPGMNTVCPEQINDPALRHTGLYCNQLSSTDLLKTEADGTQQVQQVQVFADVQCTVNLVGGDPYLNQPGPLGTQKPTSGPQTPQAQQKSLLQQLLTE
HA-tagged SRC-1: residues 361-1441 of Q15788
GST-SRC1 361-782: residues 361-782 of Q15788
UniProt P24385: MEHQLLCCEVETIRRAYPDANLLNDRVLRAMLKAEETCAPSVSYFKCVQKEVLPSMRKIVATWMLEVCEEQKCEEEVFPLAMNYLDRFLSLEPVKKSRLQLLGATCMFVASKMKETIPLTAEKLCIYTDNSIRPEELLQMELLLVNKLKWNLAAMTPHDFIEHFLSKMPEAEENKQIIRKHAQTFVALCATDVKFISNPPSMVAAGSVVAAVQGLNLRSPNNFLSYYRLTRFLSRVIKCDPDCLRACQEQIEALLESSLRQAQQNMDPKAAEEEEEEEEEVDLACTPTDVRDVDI
cyclin D1 L254/255A mutant (P24385, form named): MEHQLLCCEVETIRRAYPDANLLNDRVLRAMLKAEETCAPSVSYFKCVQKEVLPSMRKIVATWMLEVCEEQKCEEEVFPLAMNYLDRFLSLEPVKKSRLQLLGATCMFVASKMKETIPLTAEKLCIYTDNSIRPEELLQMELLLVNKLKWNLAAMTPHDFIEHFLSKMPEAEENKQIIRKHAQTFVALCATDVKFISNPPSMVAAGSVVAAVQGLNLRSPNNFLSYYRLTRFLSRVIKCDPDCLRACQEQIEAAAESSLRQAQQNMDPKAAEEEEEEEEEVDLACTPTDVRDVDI

What was measured:
baculovirus-produced ER = baculovirus-produced ER (UniProt P03372); test: pull-down with ERE oligonucleotide on streptavidin paramagnetic beads, purified proteins, Western blot
[1] = molecular target: GST-SRC1 361-1441 (human) (UniProt Q15788); test: in vitro protein binding assay (GST pull-down) with purified bacterially expressed proteins
[2] = molecular target: GST-SRC1 361-1441 (human) (UniProt Q15788); test: GST pull-down on glutathione-agarose, anti-cyclin D1 Western blot
GST-SRC1 361-782 (human) = GST-SRC1 361-782 (human) (UniProt Q15788); test: as above
[3] = molecular target: wild type estrogen receptor (ER) expressed in cells (UniProt P03372); test: restates the co-immunoprecipitation result
[4] = molecular target: wild type estrogen receptor (ER) expressed in cells (UniProt P03372); test: summary of the co-immunoprecipitation experiments
[5] = molecular target: wild type estrogen receptor (ER) expressed in cells (UniProt P03372); test: co-immunoprecipitation (monoclonal ER antibody) from transfected COS-7 cells, anti-cyclin D1 Western blot
HA-tagged SRC-1 (human) [6] = molecular target: HA-tagged SRC-1 (human) (UniProt Q15788); test: summary of the binding experiments of this study
HA-tagged SRC-1 (human) [7] = molecular target: HA-tagged SRC-1 (human) (UniProt Q15788); test: co-immunoprecipitation (12CA5 HA antibody) from transfected COS-7 cells, anti-cyclin D1 Western blot

Measured: binding

E. coli-produced 6X histidine-tagged cyclin D1 (from UniProt P24385 1-295)
binds: baculovirus-produced ER | [1] | [2] | GST-SRC1 361-782 (human)

cyclin D1 L254/255A mutant (from UniProt P24385 1-295)
binds: [3] | [4] | [5]

wild type cyclin D1 (from UniProt P24385 1-295)
binds: HA-tagged SRC-1 (human) [6] | HA-tagged SRC-1 (human) [7] | [5]
